According to publication PMC4982076, “lin28 proteins promote expression of 17∼92 family miRNAs during amphibian development”:

Legend:
lin28a1 = assay: EMSA supershift; settings: embryo extract, anti-lin28a; 60 mM KCl, 10 mM HEPES pH 7.6, 3 mM MgCl2, 5% glycerol, 1 mM DTT, 5 ug/ul heparin, 150 ng yeast total RNA; 30 min room temperature; 10% native PAGE; protein in a lysate after overexpression; label: 32P (unlabelled as competitor)
lin28a2 = assay: EMSA supershift; settings: embryo extract, anti-lin28a; 60 mM KCl, 10 mM HEPES pH 7.6, 3 mM MgCl2, 5% glycerol, 1 mM DTT, 5 ug/ul heparin, 150 ng yeast total RNA; 30 min room temperature; 10% native PAGE; protein in a lysate after overexpression; label: 32P (unlabelled as competitor)

UGCAAUUUUAUUUAGUUUGGUAGGAGAAAAAUUGC [L-mir-363]
binding result (lin28a1): binds | binding result (lin28a2): binds

Construct, isoform or probe ends are uncertain for at least one entry. Results from cells or extracts need not show a direct contact.
